Source: PubChem BioAssay AID1851 (NCATS, 2009).

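Recombinant human CYP2D6 and CYP2C9 enzymes turning a pro-luciferin substrate into light, read by luminescence; the incubation time is not stated here. Percent change in enzyme activity at the series' top concentration, where 0 is the no-effect control and more negative values mean stronger inhibition. Calls come from the fitted dose curve: inactive means no well-fitted curve with a large enough effect, even if single readings are sizeable.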

Values are in %. All entries here are filed as inactive. These are entries filed as inactive; the hits of the assay are not listed here.

{"compound": "C/C(=C\\C=C/[C@@H](C)C(=O)O)[C@H]1CN[C@H](C(=O)O)[C@@H]1CC(=O)O", "setting": "Cytochrome P450 2C9 (Homo sapiens); p450-cyp2c9; at 57.1 µM (top of the series)", "activity (%)": "-0.1278"}
{"compound": "Cc1ncc([N+](=O)[O-])n1CCN=[N+]=[N-]", "setting": "Cytochrome P450 2C9 (Homo sapiens); p450-cyp2c9; at 11.4 µM (top of the series)", "activity (%)": "-6.943"}
{"compound": "C1CCc2nnnn2CC1", "setting": "Cytochrome P450 2C9 (Homo sapiens); p450-cyp2c9; at 57.1 µM (top of the series)", "activity (%)": "-10.58"}
{"compound": "CC(C)CSC[C@@H]1O[C@H](n2cnc3c(N)nccc32)[C@H](O)[C@@H]1O", "setting": "Cytochrome P450 2D6 (Homo sapiens); p450-cyp2d6; at 11.4 µM (top of the series)", "activity (%)": "-3.481"}
{"compound": "CC(=O)O[C@H]1CC[C@@]2(C)[C@@H](CC[C@H]3[C@H]2CC(=O)[C@]2(C)[C@@H]3C[C@@H](N3CC3)[C@H]2C(C)=O)C1", "setting": "Cytochrome P450 2C9 (Homo sapiens); p450-cyp2c9; at 11.4 µM (top of the series)", "activity (%)": "-2.691"}
{"compound": "Cc1ccc(S(=O)(=O)NC(=O)NN2C[C@H]3CCC[C@@H]3C2)cc1", "setting": "Cytochrome P450 2D6 (Homo sapiens); p450-cyp2d6; at 25.6 µM (top of the series)", "activity (%)": "-0.362"}
{"compound": "CC1=NCCc2c1[nH]c1cc(O)ccc21", "setting": "Cytochrome P450 2C9 (Homo sapiens); p450-cyp2c9; at 25.6 µM (top of the series)", "activity (%)": "-14.63"}
{"compound": "Cc1ccc(C)n1C(Cc1ccccc1)C(=O)O", "stereo": "centres unmarked", "setting": "Cytochrome P450 2D6 (Homo sapiens); p450-cyp2d6; at 57.1 µM (top of the series)", "activity (%)": "-2.405"}
{"compound": "COc1ccc(C)cc1NC(=O)CCC(=O)Nc1nnc(C(F)(F)F)s1", "setting": "Cytochrome P450 2D6 (Homo sapiens); p450-cyp2d6; at 57.1 µM (top of the series)", "activity (%)": "-14.44"}
{"compound": "CN(C)C(=O)Oc1cccc([N+](C)(C)C)c1", "setting": "Cytochrome P450 2C9 (Homo sapiens); p450-cyp2c9; at 25.6 µM (top of the series)", "activity (%)": "-8.419"}
{"compound": "CN1CCc2cccc(Cl)c2CC1", "setting": "Cytochrome P450 2C9 (Homo sapiens); p450-cyp2c9; at 57.1 µM (top of the series)", "activity (%)": "19.52"}
{"compound": "CCOC(=O)c1c(-c2cccc(C)c2)csc1NC(=O)c1c(-c2ccccc2)noc1C", "setting": "Cytochrome P450 2D6 (Homo sapiens); p450-cyp2d6; at 57.1 µM (top of the series)", "activity (%)": "-22.47"}
{"compound": "CO[C@@H]1COC(=O)[C@H](Cc2ccccc2)NC(=O)C/C=C\\[C@@H](C)[C@H](OC)COC(=O)[C@@H](C)NC(=O)C/C=C\\[C@H]1C", "setting": "Cytochrome P450 2D6 (Homo sapiens); p450-cyp2d6; at 11.4 µM (top of the series)", "activity (%)": "-2.855"}
{"compound": "CCCCc1ccc(C(=O)O)nc1", "setting": "Cytochrome P450 2C9 (Homo sapiens); p450-cyp2c9; at 25.6 µM (top of the series)", "activity (%)": "-19.92"}
{"compound": "COc1cc(C2C(C(=O)c3ccc(C)o3)=C(O)C(=O)N2CCc2ccccc2)ccc1O", "stereo": "centres unmarked", "setting": "Cytochrome P450 2D6 (Homo sapiens); p450-cyp2d6; at 57.1 µM (top of the series)", "activity (%)": "-12.29"}
{"compound": "NCc1cc(=O)[nH]o1", "setting": "Cytochrome P450 2C9 (Homo sapiens); p450-cyp2c9; at 57.1 µM (top of the series)", "activity (%)": "-2.438"}
{"compound": "CC(=O)c1c(O)c(C)c(O)c(Cc2c(O)c3c(c(C(=O)/C=C\\c4ccccc4)c2O)OC(C)(C)C=C3)c1O", "setting": "Cytochrome P450 2C9 (Homo sapiens); p450-cyp2c9; at 57.1 µM (top of the series)", "activity (%)": "15.61"}
{"compound": "C[C@H](CCC(=O)NCC(=O)O)[C@H]1CC[C@H]2[C@H]3[C@@H](C[C@@H](O)[C@]12C)[C@]1(C)CC[C@H](O)C[C@@H]1C[C@@H]3O", "setting": "Cytochrome P450 2D6 (Homo sapiens); p450-cyp2d6; at 25.6 µM (top of the series)", "activity (%)": "5.9"}

Some entries from above, unchanged:

- C[C@H](CCC(=O)NCC(=O)O)[C@H]1CC[C@H]2[C@H]3[C@@H](C[C@@H](O)[C@]12C)[C@]1(C)CC[C@H](O)C[C@@H]1C[C@@H]3O [Cytochrome P450 2D6 (Homo sapiens); p450-cyp2d6; at 25.6 µM (top of the series)] : activity 5.9%
- COc1ccc(C)cc1NC(=O)CCC(=O)Nc1nnc(C(F)(F)F)s1 [Cytochrome P450 2D6 (Homo sapiens); p450-cyp2d6; at 57.1 µM (top of the series)] : activity -14.44%